Record: PubChem BioAssay AID1259425 (University of Nebraska Medical Center, 2018)
This is an unselected part of about 14,000 reagents tested. Reagent sequences are not shown. Not given: the time to read-out.

Test: 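Compare each knockdown with KSR1 silencing using changes in marker transcripts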 (primary screen)
System: HCT116 human colon cancer cells
Knock-down reagent: siRNA pool against human genes, 50 nM siRNA
Read-out: 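After 50 nM siRNA pool, branched-DNA assay measures six marker transcripts per well, minus blank, normalised to the geometric mean of two housekeeping transcripts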
Reading the numbers: BNIP3L mRNA: higher = more BNIP3L transcript after knockdown; NDRG1 mRNA: higher = more NDRG1 transcript after knockdown; BNIP3 mRNA: higher = more BNIP3 transcript after knockdown; ALDOC mRNA: higher = more ALDOC transcript after knockdown; ACSL5 mRNA: higher = more ACSL5 transcript after knockdown

no.	Target gene	BNIP3L mRNA, set 1	NDRG1 mRNA, set 1	BNIP3 mRNA, set 1	ALDOC mRNA, set 1	ACSL5 mRNA, set 1
1	FNBP1 (formin binding protein 1)	0.105	0.165	0.208	0.0146	0.13
2	NME1 (NME/NM23 nucleoside diphosphate kinase 1)	0.045	0.117	0.187	0.0039	0.158
3	CHPT1 (choline phosphotransferase 1)	0.0501	0.061	0.201	0.0538	0.105
4	KCNE4	0.0971	0.413	0.605	0.0222	0.301
5	PCDHB12 (protocadherin beta 12)	0.104	0.0612	0.289	0.00851	0.0825
6	ORAI2 (ORAI calcium release-activated calcium modulator 2)	0.114	0.131	0.372	0.0368	0.149
7	SRPK2 (SRSF protein kinase 2)	0.178	0.147	0.418	0.0154	0.281
8	FILIP1 (filamin A interacting protein 1)	0.0916	0.251	0.285	0.0175	0.19
9	H4C2 (H4 clustered histone 2)	0.0946	0.138	0.291	0.0205	0.134
10	KLF8 (KLF transcription factor 8)	0.0941	0.25	0.186	0.00793	0.152
11	TBP (TATA-box binding protein)	0.0744	0.19	0.381	-0.00373	0.259
12	LRRC8A (leucine rich repeat containing 8 VRAC subunit A)	0.107	0.325	0.164	0.0208	0.298
13	RMP24 (ribonuclease MRP subunit p24)	0.214	1.47	0.338	0.108	0.476
14	TBC1D8 (TBC1 domain family member 8)	0.192	0.584	0.373	0.0575	0.255
15	MRPL12 (mitochondrial ribosomal protein L12)	0.251	0.625	0.387	0.0344	0.219
16	PITPNA (phosphatidylinositol transfer protein alpha)	0.113	0.183	0.266	0.025	0.164
17	KIRREL3 (kirre like nephrin family adhesion molecule 3)	0.0322	0.384	0.235	0.0565	0.172
18	VRK2 (VRK serine/threonine kinase 2)	0.059	0.0514	0.208	0.0205	0.169
19	NOC2L (NOC2 like nucleolar associated transcriptional repressor)	0.114	0.24	0.461	0.0204	0.266
20	MTA3 (metastasis associated 1 family member 3)	0.105	0.13	0.256	0.0355	0.193
